In PubChem BioAssay AID504467 (National Center for Advancing Translational Sciences (NCATS), 2011):
Out of some 330,000 compounds screened, about 7,700 (2.3%) were called active. Inconclusive results, whose numbers are uncertain, are shown with a selection of clear calls. Calls follow the shape of the dose curve; as a rule, active = well fitted inhibition curve with a large enough effect; inconclusive = small, poorly fitted or top-dose-only effect, or effect the other way; inactive = flat fitted curve, though single readings scatter. Potencies beside an inconclusive call are fits to weak or partial responses and may not hold up.

Test: qHTS screen for small molecules that inhibit ELG1-dependent DNA repair in human embryonic kidney (HEK293T) cells expressing luciferase-tagged ELG1; also: nearly all actives have a fitted effect of over 55% in size
Details: HEK293T ELG1-luciferase reporter, luminescence, 16 h, DNA damage induced by 5-fluorouridine; series mostly up to 46.1 µM
Procedure, shortened: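 Step one: seed 2,000 cells per well. Step two: pin-transfer compound or DMSO alongside 5-fluorouridine. Step three: incubate 16 hr, 37 °C, 5% CO2. Step four: add ONE-Glo, wait 30 min, read luminescence.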
Potency is read from the fitted curve at half-maximal effect.

Structure (SMILES) | Potency
Cc1ccc(C(=O)N2CCN(c3nc4ccccc4n3C)CC2)cc1 | inconclusive: 6.51 µM [inhibitor, partial curve]
O=C(Nc1ccccc1C(=O)N1CCCCCC1)c1ccc(F)cc1 | inactive
CCCN(CC(=O)Nc1ccc(C(N)=O)cc1)CC(=O)Nc1ccc(F)c(F)c1F | inconclusive: 10.3 µM [inhibitor, partial curve, poor fit]
CC(C)(C)C1(O)CC(C(F)(F)F)=NN1C(=O)CCCc1ccccc1 (centres undefined) | inactive
COCCOC1CCN(Cc2cn(Cc3ccccc3)nc2-c2cc3ccccc3o2)CC1 | inconclusive: 23.1 µM [inhibitor, single point]
CS(=O)(=O)c1cccc(C(=O)Nc2cccc(-c3nc4ccccc4[nH]3)c2)c1 | inactive
CC(C)(C)N=C1NN=C(c2ccc(S(=O)(=O)N3CCCCC3)cc2)CS1 | inconclusive: 23.1 µM [inhibitor, single point]
CC(C)[C@H](NC(=O)c1ccccc1Cl)C(=O)OCC(=O)NCc1ccc2c(c1)OCO2 | inactive
CCCCN1C(=O)CCC(C(=O)O)C1c1ccc([N+](=O)[O-])cc1 (centres undefined) | inconclusive: 29.1 µM [activator, partial curve, poor fit]
O=C(COc1ccc([N+](=O)[O-])cc1)NNC(=O)Nc1ccccc1F | inactive
COc1ccc(NS(=O)(=O)c2cc(NC(=O)c3cc(F)c(F)c(F)c3F)ccc2N2CCCC2)cc1 | inconclusive: 20.6 µM [inhibitor, single point]
CCOC(=O)C1CCN(S(=O)(=O)c2cccc(-c3csc(C)n3)c2)CC1 | inconclusive: 32.6 µM [inhibitor, partial curve, poor fit]
CCN(CC)S(=O)(=O)c1ccc(N/N=C/c2ccc(O)cc2)nc1 | inconclusive: 29.1 µM [inhibitor, single point]
CC1CCCN(C(=O)CSc2nnc3ccccn23)C1 (centres undefined) | inconclusive: 20.6 µM [activator, single point]
COc1cc2c(cc1OC)CN(C(=O)/C=C/c1ccc([N+](=O)[O-])cc1)CC2 | inactive
CCOC(=O)C(Cc1ccccc1)C(=O)Nc1ccc(N(CC)CC)cc1 (centres undefined) | inconclusive: 7.31 µM [activator, partial curve]
O=C(Cn1c(=O)n(-c2ccccc2)c(=O)c2sccc21)NCc1ccccc1 | inconclusive: 3.26 µM [inhibitor, partial curve, poor fit]
N=c1c2c(ncn1Cc1ccco1)Oc1cc(O)ccc1C2c1ccccc1 (centres undefined) | inactive
CN(C)S(=O)(=O)c1cccc(C(=O)Nc2ccccc2C(=O)NC2CC2)c1 | inconclusive: 25.9 µM [inhibitor, partial curve, poor fit]

Compounds above that contain a furan ring, fused or not:
Structure (SMILES) | Potency
COCCOC1CCN(Cc2cn(Cc3ccccc3)nc2-c2cc3ccccc3o2)CC1 | inconclusive: 23.1 µM [inhibitor, single point]
N=c1c2c(ncn1Cc1ccco1)Oc1cc(O)ccc1C2c1ccccc1 (centres undefined) | inactive
